Laboratory results reported in patent publication US10563263B2, “Genetic polymorphisms associated with statin response and cardiovascular diseases, methods of detection and uses thereof” (CELERA CORPORATION, priority 2010, dated 2020).
Further values from the same series stand in other lists.

Tested on: CHD
Assay: Meta-analysis of CARE and WOSCOPS combined, synergy index, CHD endpoint
Type: in vivo, human
Excerpt: Tables 4-5 provide meta-analyses of CARE and WOSCOPS combined (2nd section of each table) for two endpoints (CHD and CVD) and three genetic models (dominant, recessive, and additive), as well as logistic regression analyses of CARE (3rd section of each table) and WOSCOPS (4th section of each table) individually.
Tables 12 and 17 provide results of meta-analysis of the CARE and WOSCOPS sample sets combined by direct genotyping and by imputing genotypes.
“P” indicates the p-value, and “P(R)” (or “P.R.”) indicates the p-value random effect. Both of these are p-values corresponding to a statistical test of whether the combined synergy index is equal to one but use different assumptions to derive the p-value. “P” is calculated using a fixed effects model, and “P(R)” is calculated using a random effects model.
“OR” indicates the odds ratio (synergy index) calculated from a fixed effects model, and “OR(R)” (or “OR.R.”) indicates the odds ratio (synergy index) calculated from a random effects model.

[1] = rs1003148 allele C ADDITIVE Imputed
[2] = rs1003148 allele C GENOTYPIC Imputed
[3] = rs1012924 allele G ADDITIVE Imputed
[4] = rs1012924 allele G DOMINANT Imputed
[5] = rs1016030 allele G ADDITIVE Genotyped
[6] = rs1016030 allele G GENOTYPIC Genotyped
[7] = rs1017558 allele A RECESSIVE Imputed
[8] = rs1032188 allele G GENOTYPIC Imputed
[9] = rs1032188 allele G RECESSIVE Imputed
[10] = rs1065639 allele C DOMINANT Imputed
[11] = rs1116596 allele T DOMINANT Imputed

Structure (SMILES): CC[C@H](C)C(=O)O[C@H]1C[C@H](O)C=C2C=C[C@H](C)[C@H](CC[C@@H](O)C[C@@H](O)CC(=O)O)[C@H]21 [Pravastatin, pravastatin]
- OR(R) (rs915491 allele C DOMINANT Imputed, P(R) 0.0002054): 1.5426
- OR (rs915493 allele T DOMINANT Imputed, P 0.0002054): 1.5426
- OR(R) (rs915493 allele T DOMINANT Imputed, P(R) 0.0002054): 1.5426
- OR (rs915494 allele A ADDITIVE Imputed, P 0.001238): 1.3527
- OR(R) (rs915494 allele A ADDITIVE Imputed, P(R) 0.001238): 1.3527
- OR (rs915494 allele A DOMINANT Imputed, P 0.0002045): 1.5574
- OR(R) (rs915494 allele A DOMINANT Imputed, P(R) 0.0002045): 1.5574
- OR (rs917295 allele G DOMINANT Imputed, P 0.0005579): 0.6664
- OR(R) (rs917295 allele G DOMINANT Imputed, P(R) 0.0005579): 0.6664
- Meta-analysis OR (rs936671, A1 (non-ref) G, A2 (ref) A): 0.70
- Meta-analysis OR (rs945020 allele A vs G (ref)): 0.65
- OR (rs966583 allele A ADDITIVE Imputed, P 9.56E−05): 0.7127
- OR(R) (rs966583 allele A ADDITIVE Imputed, P(R) 9.56E−05): 0.7127
- OR (rs966583 allele A DOMINANT Imputed, P 4.65E−05): 0.6082
- OR(R) (rs966583 allele A DOMINANT Imputed, P(R) 4.65E−05): 0.6082
- OR (rs980263 allele T GENOTYPIC Imputed, P 6.16E−05): 2.059
- OR(R) (rs980263 allele T GENOTYPIC Imputed, P(R) 6.16E−05): 2.059
- OR (rs980264 allele T GENOTYPIC Imputed, P 6.16E−05): 2.059
- OR(R) (rs980264 allele T GENOTYPIC Imputed, P(R) 6.16E−05): 2.059
- OR (rs987296 allele T GENOTYPIC Imputed, P 7.90E−05): 2.0683
- OR(R) (rs987296 allele T GENOTYPIC Imputed, P(R) 7.90E−05): 2.0683
- OR (rs992695 allele C ADDITIVE Imputed, P 2.92E−05): 0.6695
- OR(R) (rs992695 allele C ADDITIVE Imputed, P(R) 2.92E−05): 0.6695
- OR (rs992695 allele C DOMINANT Imputed, P 2.06E−05): 0.6059
- OR(R) (rs992695 allele C DOMINANT Imputed, P(R) 2.06E−05): 0.6059
- OR [1]: 0.706
- OR(R) [1]: 0.706
- OR [2]: 0.4899
- OR(R) [2]: 0.4899
- OR [3]: 0.5369
- OR(R) [3]: 0.5369
- OR [4]: 0.5009
- OR(R) [4]: 0.5009
- OR [5]: 1.4487
- OR(R) [5]: 1.4487
- OR [6]: 2.1351
- OR(R) [6]: 2.1351
- OR [7]: 2.016
- OR(R) [7]: 2.016
- OR [8]: 0.411
- OR(R) [8]: 0.3885
- OR [9]: 0.4495
- OR(R) [9]: 0.4153
- Meta-analysis OR (rs1051344 allele G vs C (ref)): 0.64
- OR [10]: 1.7059
- OR(R) [10]: 1.7059
- OR [11]: 0.5722
- OR(R) [11]: 0.5722
- Meta-analysis OR (rs1167245 allele A vs G (ref)): 0.62
- OR (rs1247340 allele C ADDITIVE Imputed, fixed effect): 1.5296
- OR(R) (rs1247340 allele C ADDITIVE Imputed, random effect): 1.5296
- OR (rs1247340 allele C DOMINANT Imputed, fixed effect): 1.7083
- OR(R) (rs1247340 allele C DOMINANT Imputed, random effect): 1.7083
- OR (rs1247341 allele C ADDITIVE Imputed, fixed effect): 1.5303
- OR(R) (rs1247341 allele C ADDITIVE Imputed, random effect): 1.5303
- OR (rs1247341 allele C DOMINANT Imputed, fixed effect): 1.7098
- OR(R) (rs1247341 allele C DOMINANT Imputed, random effect): 1.7098
- OR (rs1247343 allele C DOMINANT Imputed, fixed effect): 1.6756
- OR(R) (rs1247343 allele C DOMINANT Imputed, random effect): 1.6756
- OR (rs1330052 allele G GENOTYPIC Imputed, fixed effect): 2.0747
- OR(R) (rs1330052 allele G GENOTYPIC Imputed, random effect): 2.0747
- OR (rs1335721 allele A RECESSIVE Imputed, fixed effect): 0.5252
- OR(R) (rs1335721 allele A RECESSIVE Imputed, random effect): 0.5252
- OR (rs1336382 allele T DOMINANT Imputed, fixed effect): 1.5804
- OR(R) (rs1336382 allele T DOMINANT Imputed, random effect): 1.5804
- OR (rs1336383 allele T DOMINANT Imputed, fixed effect): 1.5819
- OR(R) (rs1336383 allele T DOMINANT Imputed, random effect): 1.5819
- OR (rs1336407 allele T DOMINANT Imputed, fixed effect): 1.5612
- OR(R) (rs1336407 allele T DOMINANT Imputed, random effect): 1.5612
- OR (rs1336409 allele T DOMINANT Imputed, fixed effect): 1.5612
- OR(R) (rs1336409 allele T DOMINANT Imputed, random effect): 1.5612
- OR (rs1336596 allele A DOMINANT Imputed, fixed effect): 0.5875
- OR(R) (rs1336596 allele A DOMINANT Imputed, random effect): 0.5875
- OR (rs1349284 allele C GENOTYPIC Imputed, fixed effect): 2.0683
- OR(R) (rs1349284 allele C GENOTYPIC Imputed, random effect): 2.0683
- OR (rs1355715 allele T ADDITIVE Imputed, fixed effect): 0.5021
- OR(R) (rs1355715 allele T ADDITIVE Imputed, random effect): 0.5021
- OR (rs1357696 allele A GENOTYPIC Imputed, fixed effect): 2.0503
- OR(R) (rs1357696 allele A GENOTYPIC Imputed, random effect): 2.0503
- OR (rs1357698 allele A GENOTYPIC Imputed, fixed effect): 2.0604
- OR(R) (rs1357698 allele A GENOTYPIC Imputed, random effect): 2.0604
- OR (rs1357699 allele T GENOTYPIC Imputed, fixed effect): 2.0604
- OR(R) (rs1357699 allele T GENOTYPIC Imputed, random effect): 2.0604
- OR (rs1363273 allele C RECESSIVE Imputed, fixed effect): 0.5543
- OR(R) (rs1363273 allele C RECESSIVE Imputed, random effect): 0.5543
- OR (rs1373601 allele A DOMINANT Imputed, fixed effect): 0.6152
- OR(R) (rs1373601 allele A DOMINANT Imputed, random effect): 0.6152
- OR (rs1375829 allele C GENOTYPIC Imputed, fixed effect): 2.0683
- OR(R) (rs1375829 allele C GENOTYPIC Imputed, random effect): 2.0683
- OR (rs1395748 allele G DOMINANT Imputed, fixed effect): 0.6306
- OR(R) (rs1395748 allele G DOMINANT Imputed, random effect): 0.6306
- OR (rs1414865 allele T DOMINANT Imputed, fixed effect): 1.5599
- OR(R) (rs1414865 allele T DOMINANT Imputed, random effect): 1.5599
- OR (rs1414873 allele A DOMINANT Imputed, fixed effect): 1.5612
- OR(R) (rs1414873 allele A DOMINANT Imputed, random effect): 1.5612
- OR (rs1414876 allele C DOMINANT Imputed, fixed effect): 1.5612
- OR(R) (rs1414876 allele C DOMINANT Imputed, random effect): 1.5612
- OR (rs1424643 allele G ADDITIVE Imputed, fixed effect): 1.4199
